The record followed here is article PMC11549365.

This assay addresses ARMC12 (Armadillo Repeat Containing 12) (not stated (human or mouse cDNA cloned)). Briefly: co-IP; HEK-293T cells co-transfected with the two plasmids, lysed after 24 h (50 mM HEPES pH 7.4, 150 mM NaCl, 2 mM MgCl2, 1 mM EGTA, 0.1% Triton X-100); cleared lysate incubated with FLAG beads overnight at 4 °C, washed three times; western blot with anti-FLAG and anti-GFP. (In general: In western blotting, separated proteins are transferred to a membrane and probed.)

No constants are given. Whether binding was seen depends on the method and setting. In cells and extracts the contact can be indirect. Binding can be weak; no strength is given. Where a sequence is shown, tags or fusion partners need not be part of it.

B1: GFP-SEPTIN7 (protein, UniProt O55131 1-436)
chain: MSVSARSAAAEERSVNCGTMAQPKNLEGYVGFANLPNQVYRKSVKRGFEFTLMVVGESGLGKSTLINSLFLTDLYSPEYPGPSHRIKKTVQVEQSKVLIKEGGVQLLLTIVDTPGFGDAVDNSNCWQPVIDYIDSKFEDYLNAESRVNRRQMPDNRVQCCLYFIAPSGHGLKPLDIEFMKRLHEKVNIIPLIAKADTLTPEECQQFKKQIMKEIQEHKIKIYEFPETDDEEENKLVKKIKDRLPLAVVGSNTIIEVNGKRVRGRQYPWGVAEVENGEHCDFTILRNMLIRTHMQDLKDVTNNVHYENYRSRKLAAVTYNGVDNNKNKGQLTKSPLAQMEEERREHVAKMKKMEMEMEQVFEMKVKEKVQKLKDSEAELQRRHEQMKKNLEAQHKELEEKRRQFEEEKANWEAQQRILEQQNSSRTLEKNKKKGKIF
On to B1, for which the binding result is reported as “binds”.

B2: GFP-SEPTIN12 (protein, UniProt A0A2R8VJU7 1-357)
chain: MDERRSPSPCSSRPSSPRTPPNEMFGPVGIEAVLDQLRIKAMKTGFEFNIMVVGQSGLGKSTMVNTLFKSKVWQSTEPNLDVPMPQTLELHSVTHVIEEKGLKLKLTVTDTPGFGDQINNDKCWDPILSYINQQYEQYLQEELLITRQRHIPDTRVHCCVYFVPPTGHCLRPLDIEFLRRLCRTVNVVPVIARADSLTIEERDAFRSRIQQNLKTHCIDVYPQKCFDEDVNDRLLNSKIREQIPFAVVGADREHIVNGRCVLGRKTKWGIIEVENMAHCEFLLLRDLLIRSHLQDLKDITHNVHYENYRVLRLNESHVLPRGPGWVNLAPVSPGQLMAPGPGKVRKRANKDTKDEEC
On to B2, for which the binding entry is listed as “binds”.

B3: GFP-SEPTIN2 (protein, UniProt P42208 1-361)
chain: MSKQQPTQFINPETPGYVGFANLPNQVHRKSVKKGFEFTLMVVGESGLGKSTLINSLFLTDLYPERIIPGAAEKIERTVQIEASTVEIEERGVKLRLTVVDTPGYGDAINCRDCFKTIISYIDEQFERYLHDESGLNRRHIIDNRVHCCFYFISPFGHGLKPLDVAFMKAIHNKVNIVPVIAKADTLTLKERERLKKRILDEIEEHSIKIYHLPDAESDEDEDFKEQTRLLKASIPFSVVGSNQLIEAKGKKVRGRLYPWGVVEVENPEHNDFLKLRTMLITHMQDLQEVTQDLHYENFRSERLKRGGRKVENEDMNKDQILLEKEAELRRMQEMIARMQAQMQMQMQGGDSDSGALGQHV
Turning to B3, the binding entry was “binds”.
